Consider one substance from paper doi:10.1101/204172.

Sequences of proteins named here, by UniProt entry; tags and fusion partners are left off.
UniProt Q923J1: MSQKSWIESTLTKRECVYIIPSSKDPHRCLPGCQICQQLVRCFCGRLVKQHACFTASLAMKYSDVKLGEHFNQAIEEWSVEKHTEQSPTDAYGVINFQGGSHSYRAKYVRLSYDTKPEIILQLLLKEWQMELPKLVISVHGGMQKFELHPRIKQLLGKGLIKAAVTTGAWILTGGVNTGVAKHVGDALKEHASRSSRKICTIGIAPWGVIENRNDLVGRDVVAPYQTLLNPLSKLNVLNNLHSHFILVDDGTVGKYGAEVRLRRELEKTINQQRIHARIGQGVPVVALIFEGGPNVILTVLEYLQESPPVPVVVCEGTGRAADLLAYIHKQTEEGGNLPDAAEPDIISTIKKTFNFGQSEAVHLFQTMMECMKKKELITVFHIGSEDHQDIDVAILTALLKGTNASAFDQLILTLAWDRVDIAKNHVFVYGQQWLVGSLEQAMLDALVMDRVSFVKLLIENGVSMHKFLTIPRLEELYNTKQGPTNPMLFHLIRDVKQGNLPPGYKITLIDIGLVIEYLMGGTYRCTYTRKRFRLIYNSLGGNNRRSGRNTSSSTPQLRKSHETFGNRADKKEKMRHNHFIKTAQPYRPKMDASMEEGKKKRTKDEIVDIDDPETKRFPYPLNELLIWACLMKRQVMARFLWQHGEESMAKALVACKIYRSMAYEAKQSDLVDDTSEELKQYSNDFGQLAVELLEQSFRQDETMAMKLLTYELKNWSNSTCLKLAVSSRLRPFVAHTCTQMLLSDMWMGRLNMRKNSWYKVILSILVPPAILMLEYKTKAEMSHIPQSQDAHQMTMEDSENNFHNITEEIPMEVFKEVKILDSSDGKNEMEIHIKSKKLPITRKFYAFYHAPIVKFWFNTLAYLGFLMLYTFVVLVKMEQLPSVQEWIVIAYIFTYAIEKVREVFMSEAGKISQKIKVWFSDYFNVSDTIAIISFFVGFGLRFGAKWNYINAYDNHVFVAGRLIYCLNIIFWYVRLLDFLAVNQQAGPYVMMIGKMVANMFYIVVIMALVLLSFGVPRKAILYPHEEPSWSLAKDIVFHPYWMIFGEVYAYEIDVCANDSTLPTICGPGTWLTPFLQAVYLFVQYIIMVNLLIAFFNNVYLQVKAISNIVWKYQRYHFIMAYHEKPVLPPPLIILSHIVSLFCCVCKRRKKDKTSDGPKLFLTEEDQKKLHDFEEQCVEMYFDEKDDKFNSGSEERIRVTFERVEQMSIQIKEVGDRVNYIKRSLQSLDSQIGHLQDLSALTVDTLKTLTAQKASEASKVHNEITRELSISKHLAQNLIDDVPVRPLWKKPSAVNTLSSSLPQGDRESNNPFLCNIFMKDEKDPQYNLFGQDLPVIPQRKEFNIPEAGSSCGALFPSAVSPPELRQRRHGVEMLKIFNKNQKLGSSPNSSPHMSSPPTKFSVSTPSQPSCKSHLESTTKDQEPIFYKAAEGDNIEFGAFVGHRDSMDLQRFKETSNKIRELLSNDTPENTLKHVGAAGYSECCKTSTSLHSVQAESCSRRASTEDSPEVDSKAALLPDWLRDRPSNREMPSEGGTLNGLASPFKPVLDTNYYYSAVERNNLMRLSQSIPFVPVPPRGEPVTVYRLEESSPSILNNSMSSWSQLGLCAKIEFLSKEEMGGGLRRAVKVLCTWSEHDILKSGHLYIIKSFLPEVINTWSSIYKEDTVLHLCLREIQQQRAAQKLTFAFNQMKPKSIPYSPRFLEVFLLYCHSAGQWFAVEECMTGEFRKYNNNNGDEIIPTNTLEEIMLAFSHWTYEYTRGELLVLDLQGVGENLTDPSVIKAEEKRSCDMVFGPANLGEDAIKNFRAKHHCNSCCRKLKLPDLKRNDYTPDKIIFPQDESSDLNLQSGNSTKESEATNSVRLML
UniProt Q8CIR4: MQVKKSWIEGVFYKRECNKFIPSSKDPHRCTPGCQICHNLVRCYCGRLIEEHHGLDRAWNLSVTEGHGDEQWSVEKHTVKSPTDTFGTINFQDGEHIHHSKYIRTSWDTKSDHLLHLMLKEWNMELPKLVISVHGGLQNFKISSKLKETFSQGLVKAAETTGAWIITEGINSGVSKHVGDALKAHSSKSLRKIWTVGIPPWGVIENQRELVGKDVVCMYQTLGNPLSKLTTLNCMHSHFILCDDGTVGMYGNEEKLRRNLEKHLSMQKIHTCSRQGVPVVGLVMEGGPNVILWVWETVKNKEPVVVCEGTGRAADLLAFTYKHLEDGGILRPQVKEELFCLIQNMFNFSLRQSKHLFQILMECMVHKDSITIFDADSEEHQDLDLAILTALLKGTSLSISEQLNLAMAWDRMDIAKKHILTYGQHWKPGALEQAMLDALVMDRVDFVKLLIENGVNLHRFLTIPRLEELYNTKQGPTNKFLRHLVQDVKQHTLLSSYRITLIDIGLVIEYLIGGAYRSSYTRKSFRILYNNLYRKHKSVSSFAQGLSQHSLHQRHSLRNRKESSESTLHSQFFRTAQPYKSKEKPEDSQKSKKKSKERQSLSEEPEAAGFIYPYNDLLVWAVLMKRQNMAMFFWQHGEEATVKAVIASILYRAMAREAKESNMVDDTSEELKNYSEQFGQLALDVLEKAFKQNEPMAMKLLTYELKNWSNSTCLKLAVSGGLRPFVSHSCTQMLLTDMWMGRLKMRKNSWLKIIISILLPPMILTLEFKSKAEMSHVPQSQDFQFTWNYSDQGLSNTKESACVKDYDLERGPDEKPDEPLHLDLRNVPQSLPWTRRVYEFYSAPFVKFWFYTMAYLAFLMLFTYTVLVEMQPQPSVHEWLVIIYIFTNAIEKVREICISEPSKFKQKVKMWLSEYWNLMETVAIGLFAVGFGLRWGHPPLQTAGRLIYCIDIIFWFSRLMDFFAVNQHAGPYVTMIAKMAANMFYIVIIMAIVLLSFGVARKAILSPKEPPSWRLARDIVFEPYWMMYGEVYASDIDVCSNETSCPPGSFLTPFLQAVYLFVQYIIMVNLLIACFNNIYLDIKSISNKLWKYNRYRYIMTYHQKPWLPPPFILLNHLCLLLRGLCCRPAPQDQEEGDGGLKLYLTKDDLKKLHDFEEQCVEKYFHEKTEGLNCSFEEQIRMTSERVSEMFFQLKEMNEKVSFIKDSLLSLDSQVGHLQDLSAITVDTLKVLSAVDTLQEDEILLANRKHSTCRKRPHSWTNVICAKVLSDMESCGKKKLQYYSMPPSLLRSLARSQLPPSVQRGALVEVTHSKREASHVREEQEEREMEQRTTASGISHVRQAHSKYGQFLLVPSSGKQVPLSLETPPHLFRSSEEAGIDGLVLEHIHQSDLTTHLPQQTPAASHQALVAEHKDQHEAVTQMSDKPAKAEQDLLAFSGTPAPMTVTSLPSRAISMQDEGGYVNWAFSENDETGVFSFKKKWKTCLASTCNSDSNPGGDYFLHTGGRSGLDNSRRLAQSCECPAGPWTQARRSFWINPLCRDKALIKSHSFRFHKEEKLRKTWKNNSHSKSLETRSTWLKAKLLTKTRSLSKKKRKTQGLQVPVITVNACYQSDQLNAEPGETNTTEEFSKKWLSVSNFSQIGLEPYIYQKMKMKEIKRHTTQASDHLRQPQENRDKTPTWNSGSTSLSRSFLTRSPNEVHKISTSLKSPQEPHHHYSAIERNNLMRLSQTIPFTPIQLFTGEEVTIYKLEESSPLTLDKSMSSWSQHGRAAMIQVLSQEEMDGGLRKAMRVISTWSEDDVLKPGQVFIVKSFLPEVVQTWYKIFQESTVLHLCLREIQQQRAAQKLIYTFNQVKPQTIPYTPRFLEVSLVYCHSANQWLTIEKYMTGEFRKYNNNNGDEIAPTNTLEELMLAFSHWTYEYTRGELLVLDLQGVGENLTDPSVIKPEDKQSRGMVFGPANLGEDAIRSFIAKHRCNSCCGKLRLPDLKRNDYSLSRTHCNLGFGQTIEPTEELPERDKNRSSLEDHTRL
UniProt P11142: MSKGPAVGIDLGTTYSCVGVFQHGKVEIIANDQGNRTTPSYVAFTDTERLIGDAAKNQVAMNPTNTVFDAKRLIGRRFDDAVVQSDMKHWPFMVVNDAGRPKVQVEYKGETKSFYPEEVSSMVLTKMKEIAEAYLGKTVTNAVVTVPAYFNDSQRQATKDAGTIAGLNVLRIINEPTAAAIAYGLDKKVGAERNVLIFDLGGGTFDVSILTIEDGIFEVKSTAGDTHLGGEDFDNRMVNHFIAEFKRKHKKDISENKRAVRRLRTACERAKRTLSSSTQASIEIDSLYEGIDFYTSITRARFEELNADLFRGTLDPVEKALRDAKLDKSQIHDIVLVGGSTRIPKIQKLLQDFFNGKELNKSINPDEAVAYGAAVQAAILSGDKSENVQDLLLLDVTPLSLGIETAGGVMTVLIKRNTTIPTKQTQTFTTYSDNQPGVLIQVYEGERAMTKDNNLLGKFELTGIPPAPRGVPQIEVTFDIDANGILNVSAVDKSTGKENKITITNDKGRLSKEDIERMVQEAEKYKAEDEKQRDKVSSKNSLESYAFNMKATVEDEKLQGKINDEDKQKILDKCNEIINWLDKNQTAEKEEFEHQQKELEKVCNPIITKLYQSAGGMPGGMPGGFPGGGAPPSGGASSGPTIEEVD

For experiment [1], the target named is HA-tagged TRPM7 (canonical splice form, full length) (mouse) (UniProt Q923J1). Nature of the experiment: affinity purification with mass spectrometry.
The target of experiment [2] is HA-tagged TRPM6 (canonical splice form, full length) (mouse) (UniProt Q8CIR4). Nature of the experiment: affinity purification with mass spectrometry.

These are yes or no findings as the source states them, for the method shown. Binding seen in cells or lysates may run through a third protein. Here binding means that the protein was enriched with, or labelled near, the bait; the list need not be complete.

For the substance “human heat shock protein cognate 71 (from UniProt P11142 1-646)”, the binding entry in experiment [1] and in experiment [2] was “binds” in each case.
